According to the supplement of paper PMC11546906:
Structures can show the parent of a compound that is named as a salt. This is one part of the list. Single values are uncertain here, since repeats match poorly.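 Screen of FDA-approved drugs, each combined with colistin at one-eighth of its MIC, against a multidrug-resistant mcr-1-positive clinical E. coli isolate; growth read as OD600 after 24 h. Bacteria without drug were the growth control and plain broth the blank. A combination counted as active when OD600 fell below 0.2.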

The compounds below were run on Escherichia coli 42 (mcr-1-positive clinical isolate) (assay: OD600 after 24 h growth with compound plus colistin (absorbance units (OD600)); higher = more bacterial growth (less inhibition)). Settings: first compound 25 µM; colistin concentration 0.5 ug/mL; incubation time 24 h; 37 °C.

OD600, inactive:
CCOc1nc2cccc(C(=O)OC(C)OC(=O)OC3CCCCC3)c2n1Cc1ccc(-c2ccccc2-c2nn[nH]n2)cc1 (centres undefined) [Candesartan Cilexetil] + CCC(C)CCCC(=O)N[C@@H](CCN)C(=O)N[C@H](C(=O)N[C@@H](CCN)C(=O)N[C@H]1CCNC(=O)[C@H]([C@@H](C)O)NC(=O)[C@H](CCN)NC(=O)[C@H](CCN)NC(=O)[C@H](CC(C)C)NC(=O)[C@@H](CC(C)C)NC(=O)[C@H](CCN)NC1=O)[C@@H](C)O [colistin] 1.13
CCCNC(C)C(=O)Nc1ccccc1C (centres undefined) [Prilocaine hydrochloride] + CCC(C)CCCC(=O)N[C@@H](CCN)C(=O)N[C@H](C(=O)N[C@@H](CCN)C(=O)N[C@H]1CCNC(=O)[C@H]([C@@H](C)O)NC(=O)[C@H](CCN)NC(=O)[C@H](CCN)NC(=O)[C@H](CC(C)C)NC(=O)[C@@H](CC(C)C)NC(=O)[C@H](CCN)NC1=O)[C@@H](C)O [colistin] 1.15
O=C1[C@H](CC[C@H](O)c2ccc(F)cc2)[C@@H](c2ccc(O)cc2)N1c1ccc(F)cc1 [Ezetimibe] + CCC(C)CCCC(=O)N[C@@H](CCN)C(=O)N[C@H](C(=O)N[C@@H](CCN)C(=O)N[C@H]1CCNC(=O)[C@H]([C@@H](C)O)NC(=O)[C@H](CCN)NC(=O)[C@H](CCN)NC(=O)[C@H](CC(C)C)NC(=O)[C@@H](CC(C)C)NC(=O)[C@H](CCN)NC1=O)[C@@H](C)O [colistin] 0.79
CCCc1nn(C)c2c(=O)[nH]c(-c3cc(S(=O)(=O)N4CCN(C)CC4)ccc3OCC)nc12 [Sildenafil citrate] + CCC(C)CCCC(=O)N[C@@H](CCN)C(=O)N[C@H](C(=O)N[C@@H](CCN)C(=O)N[C@H]1CCNC(=O)[C@H]([C@@H](C)O)NC(=O)[C@H](CCN)NC(=O)[C@H](CCN)NC(=O)[C@H](CC(C)C)NC(=O)[C@@H](CC(C)C)NC(=O)[C@H](CCN)NC1=O)[C@@H](C)O [colistin] 0.896
